Measured values from patent US20260284208A1, “SYSTEM” (Oxford University Innovation Limited, priority 2023, published 2026).
This continues a long series; more values of the same kind are listed elsewhere.

Test system: library of 8,380 IKZF3 degrons (ZF-eGFP/mCherry reporter) in Jurkat cells
Assay: Pooled library screen (FACS, NGS, limma voom LogFC of positive vs negative read counts)
Assay type: cell-based, human
Experimental: A library of 8,380 IKZF3 degrons was cloned into pLVX-Sprout to create the eGFP/mCherry protein degradation reporter plasmid pool. A lentivirus pool was then generated using the Lenti-X lentiviral vector production method.
Jurkat cells were transduced at a multiplicity of infection of <0.3 with the lentivirus vector library in order to maximise the number of cells with a single integration. Transductions were carried out in 6 well TC-treated cell culture dishes (Falcon) with 3×10^6 cells per well. Cells were incubated for 2 days at 37° C. and 5% CO2 before the supernatant was removed and replaced with fresh media. 6 days post-transduction, mCherry+ cells were isolated via FACS using the FACS Aria Fusion (BD) in a buffer containing PBS (Gibco), 2 mM EDTA (Gibco), 25 mM HEPES (Sigma) and 1% BSA (Sigma). 8 days later, cells were treated with DMSO or a thalidomide analog for 18 hours at 37° C. and 5% CO2. mCherry+GFPlow and NOT(mCherry+GFPlow) cells were sorted by FACS using the FACS Aria Fusion (BD). DMSO treated cells were used to set the mCherry+GFPlow gate and dead cells were excluded from sorting by staining cells with 1 μg/mL DAPI (ThermoFisher). gDNA was isolated using the Maxwell RSC 48 (Promega). gDNA from cells that were unsorted and untreated were also isolated to determine the library representation on the day of compound treatment. Throughout the screen >600× coverage of the library was maintained. 3 biological replicates were carried out with a new transduction taking place each time.
A two-step PCR was used where the first PCR (PCR1) amplified the integrated degron sequence from gDNA and the second PCR (PCR2) added Illumina adaptors and barcodes to permit multiplexing. See Supp F for PCR1 and PCR2 primers. Q5 Hot Start High-Fidelity 2× Master Mix (New England Biolabs) was used for both PCRs. Sufficient gDNA was amplified in PCR1 in order to maintain >600× coverage and amplicons were purified using solid phase reversible immobilization (SPRI) beads (Beckman Coulter). Purified PCR1 products were analysed on the Tapestation 4200 (Agilent) to confirm purity prior to proceeding to PCR2. Sufficient PCR1 product was amplified in PCR2 in order to maintain >600× coverage and amplicons were run on a 2% agarose TAE gel. Target bands were excised and purified using the NucleoSpin Gel and PCR Clean-up Kit (Machery Nagel). Amplicons were analysed on the Tapestation 4200 and quantified using Qubit dsDNA HS kit (ThermoFisher). PCR products were pooled and sequenced as paired-reads on the NovaSeq (Illumina) using a SP2 200 cycles kit (Illumina).
Count distributions, percentage of read mapping, library coverage and replicate correlation per sample were assessed for QC purposes.
To carry out the library screen, we used the same plasmid construct as in our earlier flow cytometry assays, but pooling all 8,380 mutants together into one Jurkat population, ensuring a copy number of one plasmid per cell (FIG. 4B). […] These GFP-negative cells were then separated from the remaining GFP-positive population using fluorescence activated cell sorting (FACS). These two populations were then sequenced and the relative abundance of every mutant in both populations compared to provide a log FC value for each mutant sequence. This value indicated how frequently a sequence is observed in the GFP-negative population relative to the GFP-positive population, and therefore how effective a degron it is for that particular IMID compound.

## O=C1CCC(N2C(=O)c3ccc(N4CCOCC4)cc3C2=O)C(=O)N1 (stereo not shown) [B03]
Degron 4095 (SEQ ID NO 3504) 46F_47W_49D_50I_52G_53A_54S_55F_67L
  B03_logFC: 3.692
Degron 4120 (SEQ ID NO 3641) 46F_47W_49D_50V_52G_53A_54A_55F_67L
  B03_logFC: 3.373
Degron 4121 (SEQ ID NO 3603) 46F_47W_49D_50V_52G_53A_54C_55F_67L
  B03_logFC: 3.471
Degron 4131 (SEQ ID NO 3460) 46F_47W_49D_50V_52G_53A_54N_55F_67L
  B03_logFC: 3.89
Degron 4133 (SEQ ID NO 3466) 46F_47W_49D_50V_52G_53A_54Q_55F_67L
  B03_logFC: 3.851
Degron 4134 (SEQ ID NO 3545) 46F_47W_49D_50V_52G_53A_54R_55F_67L
  B03_logFC: 3.597
Degron 4135 (SEQ ID NO 3600) 46F_47W_49D_50V_52G_53A_54S_55F_67L
  B03_logFC: 3.482
Degron 4140 (SEQ ID NO 3470) 46F_47W_49E_50I_52G_53A_54A_55F_67L
  B03_logFC: 3.831
Degron 4141 (SEQ ID NO 3477) 46F_47W_49E_50I_52G_53A_54C_55F_67L
  B03_logFC: 3.795
Degron 4146 (SEQ ID NO 3482) 46F_47W_49E_50I_52G_53A_54H_55F_67L
  B03_logFC: 3.784
Degron 4147 (SEQ ID NO 3561) 46F_47W_49E_50I_52G_53A_54I_55F_67L
  B03_logFC: 3.548
Degron 4148 (SEQ ID NO 3487) 46F_47W_49E_50I_52G_53A_54K_55F_67L
  B03_logFC: 3.754
Degron 4150 (SEQ ID NO 3530) 46F_47W_49E_50I_52G_53A_54M_55F_67L
  B03_logFC: 3.628
Degron 4151 (SEQ ID NO 3483) 46F_47W_49E_50I_52G_53A_54N_55F_67L
  B03_logFC: 3.782
Degron 4152 (SEQ ID NO 3629) 46F_47W_49E_50I_52G_53A_54P_55F_67L
  B03_logFC: 3.417
Degron 4153 (SEQ ID NO 3455) 46F_47W_49E_50I_52G_53A_54Q_55F_67L
  B03_logFC: 3.93
Degron 4154 (SEQ ID NO 3582) 46F_47W_49E_50I_52G_53A_54R_55F_67L
  B03_logFC: 3.508
Degron 4155 (SEQ ID NO 3473) 46F_47W_49E_50I_52G_53A_54S_55F_67L
  B03_logFC: 3.809
Degron 4156 (SEQ ID NO 3491) 46F_47W_49E_50I_52G_53A_54T_55F_67L
  B03_logFC: 3.731
Degron 4157 (SEQ ID NO 3584) 46F_47W_49E_50I_52G_53A_54V_55F_67L
  B03_logFC: 3.507
Degron 4180 (SEQ ID NO 3458) 46F_47W_49E_50V_52G_53A_54A_55F_67L
  B03_logFC: 3.904
Degron 4181 (SEQ ID NO 3484) 46F_47W_49E_50V_52G_53A_54C_55F_67L
  B03_logFC: 3.768
Degron 4186 (SEQ ID NO 3457) 46F_47W_49E_50V_52G_53A_54H_55F_67L
  B03_logFC: 3.919
Degron 4188 (SEQ ID NO 3463) 46F_47W_49E_50V_52G_53A_54K_55F_67L
  B03_logFC: 3.857
Degron 4190 (SEQ ID NO 3608) 46F_47W_49E_50V_52G_53A_54M_55F_67L
  B03_logFC: 3.458
Degron 4191 (SEQ ID NO 3464) 46F_47W_49E_50V_52G_53A_54N_55F_67L
  B03_logFC: 3.856
Degron 4193 (SEQ ID NO 3478) 46F_47W_49E_50V_52G_53A_54Q_55F_67L
  B03_logFC: 3.793
Degron 4194 (SEQ ID NO 3472) 46F_47W_49E_50V_52G_53A_54R_55F_67L
  B03_logFC: 3.817
Degron 4195 (SEQ ID NO 3564) 46F_47W_49E_50V_52G_53A_54S_55F_67L
  B03_logFC: 3.545
Degron 4196 (SEQ ID NO 3488) 46F_47W_49E_50V_52G_53A_54T_55F_67L
  B03_logFC: 3.753
Degron 4197 (SEQ ID NO 3624) 46F_47W_49E_50V_52G_53A_54V_55F_67L
  B03_logFC: 3.426
Degron 4211 (SEQ ID NO 3533) 46F_47W_49N_50I_52G_53A_54N_55F_67L
  B03_logFC: 3.619
Degron 4213 (SEQ ID NO 3546) 46F_47W_49N_50I_52G_53A_54Q_55F_67L
  B03_logFC: 3.593
Degron 4215 (SEQ ID NO 3565) 46F_47W_49N_50I_52G_53A_54S_55F_67L
  B03_logFC: 3.543
Degron 4251 (SEQ ID NO 3574) 46F_47W_49N_50V_52G_53A_54N_55F_67L
  B03_logFC: 3.527
Degron 4266 (SEQ ID NO 3577) 46F_47W_49P_50I_52G_53A_54H_55F_67L
  B03_logFC: 3.514
Degron 4268 (SEQ ID NO 3621) 46F_47W_49P_50I_52G_53A_54K_55F_67L
  B03_logFC: 3.431
Degron 4271 (SEQ ID NO 3524) 46F_47W_49P_50I_52G_53A_54N_55F_67L
  B03_logFC: 3.643
Degron 4273 (SEQ ID NO 3505) 46F_47W_49P_50I_52G_53A_54Q_55F_67L
  B03_logFC: 3.689
Degron 4274 (SEQ ID NO 3514) 46F_47W_49P_50I_52G_53A_54R_55F_67L
  B03_logFC: 3.663
Degron 4275 (SEQ ID NO 3526) 46F_47W_49P_50I_52G_53A_54S_55F_67L
  B03_logFC: 3.637
Degron 4276 (SEQ ID NO 3552) 46F_47W_49P_50I_52G_53A_54T_55F_67L
  B03_logFC: 3.566
Degron 4293 (SEQ ID NO 3569) 46F_47W_49P_50Q_52G_53A_54Q_55F_67L
  B03_logFC: 3.537
